The assay concerns the target MRGPRX2 (Homo sapiens, UniProt Q96LB1). Briefly: MRGPRX2 reporter cell assay (NFAT-RE luciferase, Substance P stimulation). It is filed as cell-based. Particulars: U2OS cells stably transfected with MRGPRX2 and NFAT-RE luciferase reporter; Substance P at EC80; class symbols. The protocol:
MRGPRX2 Reporter Cell Assays U2OS cells (ATCC, Manassas, VA) were stably transfected with MRGPRX2 expression clones (GeneCopoeia, Rockville, MD) and the pGL4.30 [luc2P/NFAT-RE/Hygro] reporter plasmid (Promega, Madison, WI). Clonal cells were maintained in Growth Media (McCoy's 5A, 10% FBS, 495 μg/ml hygromycin, 2 μg/ml puromycin, 100 units/ml penicillin, and 100 ug/ml streptomycin). The day before assay, cells were plated to white 384-well microplates at 3000 (MRGPRX2) cells/well in 10 ul Assay Media (McCoy's 5A, 2% charcoal dextran stripped FBS, 100 units/ml penicillin, and 100 ug/ml streptomycin) (Gibco, Thermo Fisher) and allowed to adhere overnight. The following day, serially diluted compound stocks were added directly to the cells (final DMSO concentration of 0.5%) and pre-incubated for 30 minutes at 37° C., 5% CO2. The final concentration of Substance P (Tocris, Minneapolis, MN, or PEPTIDE INSTITUTE, Osaka, Japan) corresponding to EC80 was added to stimulate the (MRGPRX2) cells. Cells were returned to the incubator for 6 hrs, after which 5 ul of ONE-GLO substrate (Promega) was added. Luminescence was read within 15 minutes (BioTek, Winooski, VT or infinite M1000Pro, Tecan Japan, Kanagawa, Japan). Percent inhibition for each test compound was calculated using the formula: […] where: • A=the luminescence count of the “test compound” well • B=the median luminescence count of the “Vehicle (0.5% DMSO)” wells • C═the median luminescence count of the “Vehicle (0.5% DMSO)+5 uM of substance P” wells The mean percent inhibition of each concentration of “test compound” was used to generate dose-response curves. IC50 values were calculated using a four-parameter logistic fit to the data using GraphPad Prism software. • +++: […]
A general note: Reporter assays use an easily measured gene product as a stand-in for the process of interest.

The chains behind the UniProt entries cited, without tags or fusion partners.
UniProt Q96LB1, whole entry: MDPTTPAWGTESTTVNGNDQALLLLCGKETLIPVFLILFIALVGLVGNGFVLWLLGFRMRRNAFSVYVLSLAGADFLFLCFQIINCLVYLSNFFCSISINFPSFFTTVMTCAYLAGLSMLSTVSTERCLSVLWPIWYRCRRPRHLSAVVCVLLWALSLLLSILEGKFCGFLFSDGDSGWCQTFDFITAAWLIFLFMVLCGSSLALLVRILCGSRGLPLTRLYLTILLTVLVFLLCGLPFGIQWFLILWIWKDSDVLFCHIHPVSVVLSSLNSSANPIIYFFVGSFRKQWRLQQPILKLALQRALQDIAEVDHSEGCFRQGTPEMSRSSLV

The structures given here were assigned with low confidence; some may be wrong. Bounds are passed on as bounds.

On to `COc1ccc(F)cc1-c1[nH]c2ncccc2c1-c1cccc2[nH]cnc12`, for which the IC50 (in general, the point on the concentration scale where inhibition reaches its midpoint) is 100 to 1000 nM. To `COc1ncc(F)cc1-c1c(-c2c(C(F)F)nn3c2OC[C@@H](F)C3)[nH]c2ncccc12` belongs under 10 nM. Consider `COc1ccc(F)cc1-c1[nH]c2ncccc2c1C1=CCCC1`, for which the IC50 was in the range of 100 to 1000 nM. Turning to `Cn1cc(-c2c(-c3c(C(F)F)nn4c3OC[C@@H](NC(=O)C3(C#N)CC3)C4)[nH]c3ncccc23)c(OC(F)F)n1`, the IC50 was under 10 nM.

In the case of `FC(F)c1ncsc1-c1c(-c2c(C(F)F)nn3c2OCCC3)[nH]c2ncccc12`, the IC50 fell in the range of 10 to 100 nM.

For `COc1ccc(F)cc1-c1[nH]c2ncccc2c1C1=CC(C)(C)CCC1=O`, the IC50 lay in the range of 100 to 1000 nM. `Cn1cc(-c2[nH]c3ncccc3c2-c2cscc2C#N)c(C(F)F)n1` came in with an IC50 of under 10 nM.

Values taken from patent publication US20250326772A1, “MRGPRX2 ANTAGONISTS, PHARMACEUTICAL COMPOSITION INCLUDING MRGPRX2 ANTAGONIST, AND METHOD OF TREATING MRGPRX2-MEDIATED DISEASE OR DISORDER” (KYORIN PHARMACEUTICAL CO., LTD., priority 2024, published 2025).
